Laboratory results: PubChem BioAssay AID540276 (National Center for Advancing Translational Sciences (NCATS), 2011)
“And” between values parts separate entries of the source, which are not always exact repeats. Identical values can stand only once. Screen size: about 300,000 compounds; about 5,400 (1.8%) were called active. Inconclusive results, whose numbers are uncertain, are shown with a selection of clear calls. Calls come from the whole dose curve; tested in HEK293 cells. Potencies beside an inconclusive call are fits to weak or partial responses and may not hold up.

Experiment: qHTS for inhibitors of binding or entry into cells for Marburg Virus
Settings: Marburg virus pseudotyped entry inhibition, cell reporter; series mostly up to 37.8 µM
Potency is the fitted concentration of half-maximal effect.

| SMILES | Potency |
| --- | --- |
| CCOC(=O)c1cccc(NC(=O)C2(S(=O)(=O)c3ccc(C)cc3)CC2)c1 | inconclusive: 35.5 µM [inhibitor, single point] |
| CSCc1cc(N(C)C)nc(SCc2ccc(Cl)c(Cl)c2)n1 | inconclusive: 7.3 µM [inhibitor, partial curve, poor fit] |
| O=C(Nc1ccccc1-c1ccccc1)c1cccc([N+](=O)[O-])c1 | inconclusive: 29.1 µM [inhibitor, single point] |
| COCCn1c(-c2ccc(-c3ccccc3Cl)o2)nc2c1c(=O)[nH]c(=O)n2CC(C)C | inconclusive: 2.31 µM [inhibitor, partial curve, poor fit] |
| CC(=O)c1ccc(NC(=O)/C=C/c2ccc(C)o2)cc1 | inconclusive: 35.5 µM [activator, single point] |
| O=C(c1cc(S(=O)(=O)N2CCN(c3ccccc3)CC2)ccc1Cl)N1CCCCCCC1 | inconclusive: 15.8 µM [inhibitor, single point] |
| C/[N+]([O-])=C\c1cccc(OCCN2CCN(c3ncc(C(F)(F)F)cc3Cl)CC2)c1 | inconclusive: 2.51 µM [inhibitor, partial curve, poor fit] |
| C/C(=N/NS(=O)(=O)c1ccc(C)cc1)c1cccc(NC(=O)c2cccc(Cl)c2)c1 | inconclusive: 10 µM [inhibitor, partial curve] |
| Cc1c(C)n(CC(O)CN2CCCCC2)c2ccccc12 (configuration not stated) | inconclusive: 18.3 µM [inhibitor, partial curve, poor fit] |
| CCOCC(=O)N1CCN(c2ccccc2OC)CC1 | inconclusive: 17.8 µM [activator, partial curve, poor fit] |
| COc1ccc(-c2csc(-n3ncc(-c4cccs4)c3N)n2)cc1 | inactive |
| CCOc1ccc(C2c3c(oc4ccccc4c3=O)C(=O)N2Cc2ccc3c(c2)OCO3)cc1 (configuration not stated) | inconclusive: 7.94 µM [activator, partial curve, poor fit] |
| O=C(COC(=O)CC1c2ccccc2CCN1S(=O)(=O)c1ccc(F)cc1)Nc1ccccc1 (configuration not stated) | inconclusive: 10 µM [inhibitor, partial curve, poor fit] |
| COc1ccc(CCNC(=O)c2ccc3ccccc3n2)cc1OC | inconclusive: 7.94 µM [inhibitor, partial curve] |
| Cc1cc(C)c([N+](=O)[O-])cc1-c1ccc(/C=N/c2c(-c3ccco3)nc3ccccn23)o1 | inactive |
| COC(=O)c1ccc(OC)c(CSc2nnc(COc3ccc(OC)cc3)o2)c1 | inconclusive: 10.3 µM [inhibitor, partial curve] |
| CC(=O)[C@]1(O)Cc2c(O)c3c(c(O)c2[C@@H](O[C@H]2C[C@H](N)[C@H](O)[C@H](C)O2)C1)C(=O)c1c(O)cccc1C3=O | active: 0.056 µM |
| O=C(N/N=C/c1cccc(Oc2ccccc2)c1)c1ccccc1Br | inconclusive: 32.6 µM [inhibitor, single point] |
| Cc1sc(NC(=O)c2ccccc2)c(C(=O)N2CCN(C)CC2)c1C | inconclusive: 11.2 µM [activator, partial curve] |
| O=C(COC(=O)c1ccc2ccccc2n1)Nc1ccccc1Br | inconclusive: 10 µM [activator, partial curve, poor fit] |
| CCC(C)c1ccc(NC(=S)N2CCCC2)cc1 (configuration not stated) | inconclusive: 35.5 µM [activator, single point] |
| O=S(=O)(Nc1ccc(-n2cnnn2)cc1)c1ccc(Cl)s1 | inactive |
| COc1cccc(C2CC(c3ccc(Br)cc3)=NN2C(=O)c2ccncc2)c1OC (configuration not stated) | inconclusive: 12.6 µM [inhibitor, partial curve, poor fit] |

| SMILES | Potency |
| --- | --- |
| CC(C)Nc1nnc(SCC(=O)Nc2ccc3c(c2)C(=O)c2ccccc2C3=O)s1 | inconclusive: 12.6 µM [inhibitor, partial curve, poor fit] |
| CC1(C)CC(=O)C2=C(C1)NC(=O)CC2c1ccc(N(CCC#N)CCC#N)cc1 (configuration not stated) | inconclusive: 1.64 µM [activator, full curve, poor fit] |
| Cc1nc(CCNC(=O)CC2C(=O)NCCN2Cc2ccccc2F)sc1C (configuration not stated) | inactive |
| O=C(CCC(=O)N1CCN(c2ccccn2)CC1)c1cccs1 | inconclusive: 1.26 µM [inhibitor, single point] |
| Cc1cc(C)cc(C(=O)NCC(=O)OCc2c(C)noc2C)c1 | inconclusive: 0.891 µM [inhibitor, partial curve, poor fit] |
| Cc1cc(Br)ccc1SCC(=O)OCC(=O)NC1CC1 | inconclusive: 11.2 µM [activator, single point] |
| CCOc1ccccc1N1CCN(c2nc3ccccc3nc2C(C#N)C(=O)OC)CC1 (configuration not stated) | inactive and inconclusive: 22.4 µM [activator, single point] |
| CC(C)C1CC(c2ccccc2)(C(CN)CO)CCO1 (configuration not stated) | inactive |
| CCOc1ccc(CNC(=O)c2ccc3c(c2)N(Cc2ccccc2)CCS3)cc1 | inconclusive: 3.16 µM [inhibitor, partial curve, poor fit] |
| CC(=O)N1CCOc2ccc(S(=O)(=O)NCC3CCC(C(=O)Nc4ccc(C)cn4)CC3)cc21 (configuration not stated) | inconclusive: 6.31 µM [inhibitor, partial curve, poor fit] |
| COc1ccccc1NC(=O)c1nn(-c2ccccc2)ccc1=O | inactive |
| COc1cc(NC(=O)c2ccc(Cl)cc2Cl)ccc1-c1cc2ccccc2oc1=O | inactive |
| O=C(NCc1ccco1)/C(=C/c1cccnc1)NC(=O)c1cccc(Br)c1 | inconclusive: 5.17 µM [inhibitor, full curve, poor fit] |
| O=C1CN(S(=O)(=O)c2ccc(Cl)cc2)c2ccccc2N1 | inactive |
| Cc1nn(-c2ccccc2)c(C)c1/C=N/NC(=O)CSc1nnc(SCc2cccc3ccccc23)s1 | inconclusive: 15.8 µM [inhibitor, single point] |
| COc1ccc(-c2noc(-c3ccc(NCCc4ccccc4)c([N+](=O)[O-])c3)n2)cc1 | inactive |
| O=C(Nc1cc(C(=O)N2CCN(c3ccccc3)CC2)ccc1Cl)c1cccs1 | inactive |
| Cc1ccc(NC(=O)CCn2c(=S)oc3ccccc32)cc1F | inactive |
| Cc1ccn2cc(C(=O)NC3CCN(Cc4ccccc4)CC3)nc2c1 | inconclusive: 5.8 µM [inhibitor, partial curve, poor fit] |
| COc1ccc(S(=O)(=O)N2CCCCC2)cc1NCC(=O)Nc1ccc(C)cc1 | inactive |
| CCn1c(COc2ccccc2)nnc1SCC(=O)Nc1cc(C)ccc1OC | inconclusive: 29.1 µM [inhibitor, single point] |
| CC(C)CNC(=O)N1c2ccccc2Sc2ccccc21 | inconclusive: 10 µM [inhibitor, partial curve, poor fit] |
| ON=C1c2cc(OCCN3CCCCC3)ccc2-c2ccc(OCCN3CCCCC3)cc21 | active: 3.16 µM |

| SMILES | Potency |
| --- | --- |
| COc1ccc(S(=O)(=O)N2CCN(CCc3ccccc3)CC2)cc1 | inactive |
| Cc1nc2c(o1)C(=O)c1ccccc1C2=Nc1ccccc1 | inconclusive: 2.51 µM [inhibitor, full curve] |
| CCOC(=O)c1c(-c2cccc3ccccc23)csc1NC(=O)C1C2CCC(O2)C1C(=O)O (configuration not stated) | inconclusive: 5.62 µM [inhibitor, single point] |
| CCOC(=O)c1c(NC(NC(=O)CF)C(Cl)(Cl)Cl)sc2c1CCCC2 (configuration not stated) | inconclusive: 0.206 µM [inhibitor, full curve] |
| Cn1ncc2c(NNC(=O)Cc3ccccc3)ncnc21 | inactive |
| Cc1nc(N2CCOCC2)c2cc(-c3ccccc3)sc2n1 | inconclusive: 20 µM [inhibitor, single point] |
| c1cc(-c2nc3ccccc3o2)nc(-c2nc3ccccc3o2)c1 | inactive |
| CC(=O)Nc1ccc(OC/C=C(\C)Cl)cc1 | inactive |
| CCOC(=O)Cn1c(=O)oc2cc(S(=O)(=O)Nc3ccccc3F)ccc21 | inactive |
| O=C(NCCO)c1ccc(Cl)c(Cl)c1 | inactive |
| CN(C)c1nc(OCCNC(=O)COc2ccc(Cl)cc2Cl)nc(N2CCCCC2)n1 | inconclusive: 18.3 µM [inhibitor, single point] |
| COc1cccc(NC(=S)N(CCCN2CCCC2)Cc2ccco2)c1 | inconclusive: 35.5 µM [inhibitor, single point] |
| Cc1cc2oc(C(=O)Nc3ccc(S(=O)(=O)N(C)c4ccccc4)cc3)cc(=O)c2cc1C | inconclusive: 10 µM [activator, partial curve] |
| O=C1CCCN1CC(=O)N1CCCC(Nc2cccc(F)c2)C1 (configuration not stated) | inconclusive: 35.5 µM [activator, single point] |
| Clc1ccc(CNc2ncnc3[nH]ncc23)c(Cl)c1 | inconclusive: 15.8 µM [inhibitor, partial curve, poor fit] |
| COc1ccc(-c2ccnc(-c3ccncc3)n2)cc1 | inconclusive: 11.2 µM [inhibitor, partial curve, poor fit] |
| Cc1cc(C(=O)CSc2nc3ccccc3o2)c(C)n1CC1CCCO1 (configuration not stated) | inconclusive: 12.6 µM [inhibitor, single point] |
| COc1cc(/C=N/NC(=S)NCc2ccccc2)ccc1OCC#N | inconclusive: 14.6 µM [inhibitor, partial curve] |
| COc1ccc(CNC(=O)c2ccc(S(=O)(=O)N3CC(C)CC(C)C3)cc2)cc1OC (configuration not stated) | inconclusive: 35.5 µM [inhibitor, single point] |
| Cc1oc2c(C)c3oc(=O)c(CCC(=O)N4CCCCC4)c(C)c3cc2c1C | inactive |
| COCCCNC(=O)c1ccc2c(=O)n(Cc3ccc4c(c3)OCO4)c(=S)[nH]c2c1 | inconclusive: 29.1 µM [inhibitor, single point] |
